MtTrpRS: 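Enzyme assay of tryptophanyl-tRNA synthetase; the read-out is not stated. Target: Tryptophan-tRNA ligase, Mycobacterium tuberculosis (UniProt P9WFT3). Compounds at 10 µM. Higher most likely means stronger inhibition; the record gives no direction and few retests gave an IC50. Of about 65,000 compounds tested this way, about 64 (0.098%) reached 50% or more in at least one test.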
TcHisRS: 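Histidine-tRNA ligase, Trypanosoma cruzi CL Brener (UniProt Q4DA54). Enzyme assay of histidyl-tRNA synthetase; the read-out is not stated. Concentration: 30 µM. The record gives no direction; compounds that gave an IC50 in retests scored well above the rest, so higher reads as stronger inhibition. Of about 69,000 compounds tested this way, about 31 (0.045%) reached 50% or more in at least one test.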
PfKRS1: 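Enzyme assay of the cytosolic lysyl-tRNA synthetase in 384-well plates, read by luminescence. Target: Lysine-tRNA ligase, Plasmodium falciparum 3D7 (UniProt Q8IDJ8). Compounds at 30 µM. Higher reads as stronger inhibition, judged from the few compounds that gave an IC50. Of about 69,000 compounds tested this way, about 49 (0.071%) reached 50% or more in at least one test.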
CoaBC: 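Enzyme assay of CoaBC with a phosphate dye (Biomol Green) read at 650 nm. Target: Coenzyme A biosynthesis protein CoaBC, Mycobacterium tuberculosis (UniProt P9WNZ1). Compounds at 30 µM. Direction is inferred from only a few compounds that gave an IC50; most scored high, so higher reads as stronger inhibition. Most strong results did not repeat in a second test. About 67,000 compounds were tested under these conditions; 0.06% (about 40) showed 50% or more at least once.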
Pks13 thioesterase: 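Polyketide synthase Pks13, Mycobacterium tuberculosis (UniProt I6X8D2). Enzyme assay of the thioesterase domain of polyketide synthase 13; the read-out is not stated. Tested at 30 µM. Higher reads as stronger inhibition (inferred from which compounds were picked for retests). Size under these conditions: about 67,000 compounds, about 300 of them at 50% or above in at least one test.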
Leishmania in macrophages: 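Cell assay of Leishmania donovani living inside macrophages; the read-out is not stated. Compounds at 30 µM. Direction is inferred from retests: higher values go with stronger inhibition. Of about 69,000 compounds tested this way, about 1,000 (1.5%) reached 50% or more in at least one test.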

Protein sequences, listed by entry. Tags and fused reporters are not part of them. Residues count along the entry.
UniProt P9WFT3, whole entry: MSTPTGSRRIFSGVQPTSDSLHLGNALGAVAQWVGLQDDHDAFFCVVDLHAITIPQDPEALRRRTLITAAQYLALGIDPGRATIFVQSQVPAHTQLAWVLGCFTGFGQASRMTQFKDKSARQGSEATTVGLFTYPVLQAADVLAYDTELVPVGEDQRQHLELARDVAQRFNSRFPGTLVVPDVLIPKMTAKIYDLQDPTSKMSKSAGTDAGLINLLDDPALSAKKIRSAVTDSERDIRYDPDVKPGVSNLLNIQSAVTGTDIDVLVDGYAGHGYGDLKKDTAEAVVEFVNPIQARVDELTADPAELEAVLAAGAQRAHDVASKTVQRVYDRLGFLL
UniProt Q4DA54, 1-478: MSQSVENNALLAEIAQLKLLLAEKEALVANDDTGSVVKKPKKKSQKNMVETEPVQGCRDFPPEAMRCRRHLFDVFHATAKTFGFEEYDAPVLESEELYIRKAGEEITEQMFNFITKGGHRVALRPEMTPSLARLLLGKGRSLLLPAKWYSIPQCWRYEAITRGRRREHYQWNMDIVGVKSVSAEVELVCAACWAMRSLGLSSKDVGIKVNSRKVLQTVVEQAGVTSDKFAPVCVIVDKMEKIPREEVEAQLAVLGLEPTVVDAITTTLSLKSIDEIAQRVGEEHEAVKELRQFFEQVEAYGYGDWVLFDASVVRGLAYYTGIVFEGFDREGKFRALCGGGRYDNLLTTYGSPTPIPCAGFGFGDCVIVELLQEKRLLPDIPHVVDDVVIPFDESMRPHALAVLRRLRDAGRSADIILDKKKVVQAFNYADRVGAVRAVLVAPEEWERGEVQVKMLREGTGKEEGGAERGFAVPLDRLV
UniProt Q8IDJ8, 1-583: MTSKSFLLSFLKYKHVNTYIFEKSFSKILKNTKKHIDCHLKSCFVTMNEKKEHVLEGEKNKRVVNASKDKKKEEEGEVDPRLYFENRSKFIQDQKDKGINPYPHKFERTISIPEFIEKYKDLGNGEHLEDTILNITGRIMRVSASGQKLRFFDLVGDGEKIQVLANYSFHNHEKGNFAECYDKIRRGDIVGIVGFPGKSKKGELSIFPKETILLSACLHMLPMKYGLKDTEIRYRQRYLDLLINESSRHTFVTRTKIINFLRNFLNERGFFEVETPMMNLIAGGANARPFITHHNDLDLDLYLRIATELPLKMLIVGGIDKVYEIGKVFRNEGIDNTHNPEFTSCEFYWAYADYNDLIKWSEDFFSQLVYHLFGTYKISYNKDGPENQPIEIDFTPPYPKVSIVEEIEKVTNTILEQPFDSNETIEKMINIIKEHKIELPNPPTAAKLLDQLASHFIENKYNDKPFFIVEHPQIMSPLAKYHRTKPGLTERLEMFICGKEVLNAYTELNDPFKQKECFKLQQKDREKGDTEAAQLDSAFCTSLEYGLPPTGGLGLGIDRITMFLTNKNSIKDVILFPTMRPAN
UniProt P9WNZ1, whole entry: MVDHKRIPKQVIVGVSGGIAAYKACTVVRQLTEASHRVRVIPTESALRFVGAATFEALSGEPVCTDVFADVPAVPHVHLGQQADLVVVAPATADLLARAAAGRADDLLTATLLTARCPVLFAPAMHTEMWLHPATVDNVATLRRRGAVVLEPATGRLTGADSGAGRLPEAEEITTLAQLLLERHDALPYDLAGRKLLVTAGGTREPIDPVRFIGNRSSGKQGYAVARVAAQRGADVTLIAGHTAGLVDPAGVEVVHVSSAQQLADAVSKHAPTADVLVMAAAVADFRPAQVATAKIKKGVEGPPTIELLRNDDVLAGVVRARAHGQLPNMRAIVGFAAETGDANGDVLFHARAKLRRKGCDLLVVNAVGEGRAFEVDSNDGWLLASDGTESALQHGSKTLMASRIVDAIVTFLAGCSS
UniProt I6X8D2, whole entry: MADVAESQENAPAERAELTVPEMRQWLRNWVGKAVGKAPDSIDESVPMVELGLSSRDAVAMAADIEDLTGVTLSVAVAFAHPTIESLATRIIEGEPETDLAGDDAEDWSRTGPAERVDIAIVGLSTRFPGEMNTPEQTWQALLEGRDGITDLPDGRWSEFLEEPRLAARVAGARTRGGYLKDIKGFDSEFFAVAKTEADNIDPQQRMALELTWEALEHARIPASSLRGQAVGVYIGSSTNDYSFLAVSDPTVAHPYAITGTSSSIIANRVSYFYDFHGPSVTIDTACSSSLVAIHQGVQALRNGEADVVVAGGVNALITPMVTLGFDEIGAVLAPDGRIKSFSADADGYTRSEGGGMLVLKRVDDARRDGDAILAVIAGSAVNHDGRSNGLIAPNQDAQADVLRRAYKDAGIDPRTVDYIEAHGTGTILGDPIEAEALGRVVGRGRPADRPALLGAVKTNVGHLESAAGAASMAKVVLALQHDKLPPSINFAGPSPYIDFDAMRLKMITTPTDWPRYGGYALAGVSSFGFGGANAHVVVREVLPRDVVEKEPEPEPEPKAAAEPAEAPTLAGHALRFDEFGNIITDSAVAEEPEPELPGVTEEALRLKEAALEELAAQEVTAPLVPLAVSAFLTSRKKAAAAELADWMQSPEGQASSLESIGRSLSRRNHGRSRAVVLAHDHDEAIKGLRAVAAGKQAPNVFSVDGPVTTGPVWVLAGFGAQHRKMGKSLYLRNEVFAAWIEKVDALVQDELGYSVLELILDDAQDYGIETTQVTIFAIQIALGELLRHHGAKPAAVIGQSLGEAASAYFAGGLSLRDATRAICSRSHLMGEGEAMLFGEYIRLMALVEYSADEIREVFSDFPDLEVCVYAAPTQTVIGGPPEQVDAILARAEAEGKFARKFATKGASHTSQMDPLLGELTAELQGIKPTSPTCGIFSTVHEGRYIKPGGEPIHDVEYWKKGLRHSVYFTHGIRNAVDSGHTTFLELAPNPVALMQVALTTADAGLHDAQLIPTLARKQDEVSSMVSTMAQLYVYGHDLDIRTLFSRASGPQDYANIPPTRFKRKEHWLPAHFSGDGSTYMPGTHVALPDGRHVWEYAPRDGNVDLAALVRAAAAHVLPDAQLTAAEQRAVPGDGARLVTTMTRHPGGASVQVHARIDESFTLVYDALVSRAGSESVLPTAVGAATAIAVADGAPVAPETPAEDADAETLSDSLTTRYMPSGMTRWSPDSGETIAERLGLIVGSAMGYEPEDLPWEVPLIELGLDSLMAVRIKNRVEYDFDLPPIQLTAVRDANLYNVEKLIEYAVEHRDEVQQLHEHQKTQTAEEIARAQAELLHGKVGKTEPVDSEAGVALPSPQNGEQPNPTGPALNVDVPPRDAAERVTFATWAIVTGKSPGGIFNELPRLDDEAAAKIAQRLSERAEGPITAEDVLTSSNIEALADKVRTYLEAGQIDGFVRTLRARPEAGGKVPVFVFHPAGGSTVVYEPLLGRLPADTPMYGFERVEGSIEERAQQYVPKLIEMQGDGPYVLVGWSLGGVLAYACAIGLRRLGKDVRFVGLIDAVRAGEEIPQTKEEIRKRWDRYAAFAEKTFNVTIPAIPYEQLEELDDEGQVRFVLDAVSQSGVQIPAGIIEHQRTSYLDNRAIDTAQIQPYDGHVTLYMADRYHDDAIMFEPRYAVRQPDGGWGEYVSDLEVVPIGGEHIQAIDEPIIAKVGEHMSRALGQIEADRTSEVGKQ

Values are the deposited “Percent Effect”, in %. The record does not define 0% and 100%; most values in the screen are far below 50% and negative numbers occur (in some assays of this library far below -100). This is an unselected part of the compounds tested.

CC(C)(C)NC(=O)c1cnc(C(C)(C)C)s1 read MtTrpRS: -0.2694%; TcHisRS: -2.041%; PfKRS1: 3.532%; CoaBC: 2.303%; Pks13 thioesterase: -7.801%; Leishmania in macrophages: 26.26%.
Cc1cc(C(=O)NCc2ccco2)nn1C read MtTrpRS: -0.2591%; TcHisRS: 3.478%; PfKRS1: 7.768%; CoaBC: 8.545%; Pks13 thioesterase: 3.205%; Leishmania in macrophages: -1.704%.
Cc1cc(C)n(CC2CCCN2C(=O)c2ccc3nncn3c2)n1 (centres undefined) read MtTrpRS: -2.92%; TcHisRS: 3.39%; PfKRS1: 0.2213%; CoaBC: -0.5222%; Pks13 thioesterase: -8.766%; Leishmania in macrophages: 17.4%.
O=C(c1ccc(F)cc1F)N1CC[C@H](O)[C@@H](N2CCOCC2)CC1 read MtTrpRS: 1.25%; TcHisRS: 0%; PfKRS1: 5.215%; CoaBC: 3.272%; Pks13 thioesterase: -8.107%; Leishmania in macrophages: 16.74%.
Cc1nn(C)c(Oc2ccc(Cl)cc2)c1CN1CC[C@H](CO)[C@@H](O)C1 read MtTrpRS: -10.91%; TcHisRS: 7.263%; PfKRS1: 2.946%; CoaBC: -0.4032%; Pks13 thioesterase: -12.96%; Leishmania in macrophages: 9.933%.
O=C(CN1C(=O)CCC1=O)N1CCOCC1 read MtTrpRS: -4.495%; TcHisRS: 0.4878%; PfKRS1: -4.513%; CoaBC: -1.882%; Pks13 thioesterase: -3.333%; Leishmania in macrophages: -9.724%.
Cc1cc(C)cc(OCC(=O)N2CCCC2)c1 read MtTrpRS: -1.632%; TcHisRS: 6.098%; PfKRS1: 5.542%; CoaBC: 5.19%; Pks13 thioesterase: -5.324%; Leishmania in macrophages: -16.35%.
CCc1nc(CN2CCCC(N(C)Cc3cnc(C)s3)C2)no1 (centres undefined) read MtTrpRS: -5.631%; TcHisRS: 11.57%; PfKRS1: -3.814%; CoaBC: -0.6397%; Pks13 thioesterase: -0.3943%; Leishmania in macrophages: 9.522%.
CN(Cc1cc(C2CC2)[nH]n1)Cc1cc2ccc(F)cc2[nH]c1=O read MtTrpRS: -2.829%; TcHisRS: 1.117%; PfKRS1: -0.2002%; CoaBC: 4.627%; Pks13 thioesterase: 8.892%; Leishmania in macrophages: 21.71%.
COCC(=O)N1CCN(Cn2nc(C)c(Br)c2C)CC1 read MtTrpRS: -0.000007%; TcHisRS: 8%; PfKRS1: -0.4106%; CoaBC: -1.818%; Pks13 thioesterase: 2.659%; Leishmania in macrophages: 52.22%.
Cn1cc(Cl)cc1C(=O)N1CCC2(CCCN(CC3CCC3)C2=O)C1 (centres undefined) read MtTrpRS: -2.828%; TcHisRS: 7.143%; PfKRS1: 3.819%; CoaBC: -1.333%; Pks13 thioesterase: -21.05%; Leishmania in macrophages: -45.89%.
CS(=O)(=O)N1CCOCC2(CCN(C(=O)c3ccco3)CC2)C1 read MtTrpRS: -3.754%; TcHisRS: -46.49%; PfKRS1: 1.901%; CoaBC: -7.275%; Pks13 thioesterase: -1.552%; Leishmania in macrophages: 32.28%.
CNS(=O)(=O)c1ccsc1C(=O)OC read MtTrpRS: -3.965%; TcHisRS: -0.5435%; PfKRS1: 5.238%; CoaBC: 4.959%; Pks13 thioesterase: -32.92%; Leishmania in macrophages: -2.474%.
CN(C)C(=O)[C@]12CCCN(CC3CC3)C[C@H]1CN(c1ccccn1)C2 read MtTrpRS: -5.585%; TcHisRS: 4.762%; PfKRS1: -2.099%; CoaBC: 3.822%; Pks13 thioesterase: -21.71%.
CC(C)Oc1ccc(CNC(=O)C2CCC(=O)N2)cn1 (centres undefined) read MtTrpRS: -1.826%; TcHisRS: 8.861%; PfKRS1: -3.35%; CoaBC: -1.683%; Pks13 thioesterase: -8.36%; Leishmania in macrophages: -18.95%.
Cc1cc(C)nc(CN(C)C(=O)c2cccc(CCC(C)(C)O)c2)c1 read MtTrpRS: 3.961%; TcHisRS: 2.235%; PfKRS1: 8.075%; CoaBC: 2.571%; Pks13 thioesterase: -26.98%; Leishmania in macrophages: 32.13%.

2 of the entries, repeated:

With Cc1cc(C)cc(OCC(=O)N2CCCC2)c1 the screen gave MtTrpRS: -1.632%; TcHisRS: 6.098%; PfKRS1: 5.542%; CoaBC: 5.19%; Pks13 thioesterase: -5.324%; Leishmania in macrophages: -16.35%.
With Cn1cc(Cl)cc1C(=O)N1CCC2(CCCN(CC3CCC3)C2=O)C1 (centres undefined) the screen gave MtTrpRS: -2.828%; TcHisRS: 7.143%; PfKRS1: 3.819%; CoaBC: -1.333%; Pks13 thioesterase: -21.05%; Leishmania in macrophages: -45.89%.

The values are deposited in ChEMBL (CHEMBL3988442, “University of Dundee, Small-Polar-MMV Screening Library” (2021)).